Reference: patent publication US20100196951A1
No constants are given. Whether binding was seen depends on the method and setting. Binding seen in cells or lysates may run through a third protein. Some binding calls cover weakened binding; strength is not graded here.

The chains behind the UniProt entries cited, without tags or fusion partners.
UniProt P0AE70: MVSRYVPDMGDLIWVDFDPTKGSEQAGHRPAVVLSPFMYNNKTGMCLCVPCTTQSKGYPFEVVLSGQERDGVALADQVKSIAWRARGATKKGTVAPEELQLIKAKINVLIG

Biological target: His-tagged MazF protein (Escherichia coli) (UniProt P0AE70)
Assay: co-elution with His-tagged MazF in His-tag chromatography, SDS-PAGE with Coomassie staining

Substance: MazE antitoxin with the Thrombin-recognition sequence LVPRGS in place of VDGK at positions 38 to 41 (from UniProt P0AE72 1-37; P0AE72 42-82)
- binding: binds
